This is an account of results in US20250332176A1, “TREATMENT FOR FIBROSIS AND INHIBITION OF FIBROSIS” (GALMED RESEARCH AND DEVELOPMENT LTD, priority 2022, published 2025).

This data set deals with pts with pre-diabetes or diabetes and biopsy-proven NASH. The data set can be described thus: Global phase 2b randomized placebo-controlled ARREST trial, one-year results. The data set is classed as in vivo, human. The note with it: 400 mg and 600 mg QD, 1 year. On the procedure: Overweight/obese pts with pre-diabetes or diabetes and biopsy-proven NASH (with NAS≥4; F<4) were included. Liver biopsy and liver fat measurement by MR spectroscopy (LF-MRS) were performed at baseline and week 52. Both read centrally. The primary endpoint was the absolute change from baseline in LF-MRS (600 mg vs. placebo, PLB; mixed model repeated measures). Key secondary endpoints included: NASH resolution without fibrosis worsening, ≥1 stage fibrosis reduction without NASH worsening and ALT reduction. 247 pts from 11 countries (US, Europe, Latin America) were randomized 2:2:1 to Aramchol™ 400 mg QD (N=101), 600 mg QD (N=98) or PLB (N=48). At baseline: 65% females, mean age 54.4 yrs, BMI 32.7 kg/m2, HbA1c 6.6%±1.0% (mean±SD), LF-MRS 28.5%±11.7% (mean±SD); 60% fibrosis stage 2-3 and NAS 5.12±1.00 (mean±SD). 89% of pts completed the study. The results of the study are summarized in FIGS. 16A-16B to FIGS.-20A-20B.

Turning to `CCCCCCCCCCCCCCCCCCCC(=O)N[C@H]1CC[C@@]2(C)[C@@H](C1)C[C@@H](O)[C@@H]1[C@@H]2C[C@H](O)[C@]2(C)[C@@H]([C@H](C)CCC(=O)O)CC[C@@H]12` [Aramchol™, 3β-arachidylamido-7α, 12α-dihydroxy-5β-cholan-24-oic acid], the Serum lipid parameters entry is listed as “did not change” and the body weight result was “did not change”.
